The structures appear in SMILES notation. The list shows a part of the results. Further columns of the screen follow, without active or inactive calls. Most of these compounds were active or inconclusive in the main read-out, so they are no random draw. Potencies come from curve fits of mixed quality, noted in brackets.

Among the data in PubChem BioAssay AID493014 (National Center for Advancing Translational Sciences (NCATS), 2011) are AC50 values, retold here.

The nature of this experiment: qHTS Assay to Find Inhibitors of Chronic Active B-Cell Receptor Signaling. To be noted: ABC-DLBCL IkBa-CBG/CBR reporter, luminescence ratio (green luciferase fused to IkBa over red control in TMD8 lymphoma cells), 4 h. In short, it runs like this: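 TMD8 ABC-DLBCL cells carrying doxycycline-inducible green luciferase fused to IkappaBalpha plus unfused red luciferase were exposed to compounds (up to 46 uM) for 4 hrs at 37C. Activity came from the overlap-corrected green/red luminescence ratio.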
Background: In qHTS, concentration-response curves come from the screen itself.

[1] abbreviates: measured here: CBR red luminescence, cell number.
[2] abbreviates: measured here: IkBa-CBG green luminescence.

`COc1ccc2nc3n(c(=O)c2c1)-c1ccc(Cl)cc1C(=O)NC3Cc1ccccc1` (configuration not stated): the AC50 under setting [1] was 20.6 µM [rising, partial curve, poor fit].

Consider `O=C(O)c1nnn(-c2cccc(C(F)(F)F)c2)c1-c1ccccc1`, for which, under setting [1], the AC50 was 22.4 µM [rising, single point].

Turning to `Cc1ccc(S(=O)(=O)CC(=O)NCc2ccc(Cl)cc2)cc1`, the AC50 under setting [1] was 6.51 µM [rising, single point].

As to `CCOC(=O)C1=C(C)N(C)C(C)=C(C(=O)OCC)C1c1ccc(C(=O)OC)cc1`, the AC50 under setting [1] is 0.651 µM [rising, partial curve, poor fit].

`COc1ccc(-c2noc(CN(C)S(=O)(=O)c3ccc(C)cc3)n2)cc1`: under setting [1], the AC50 was 29.1 µM [rising, single point].

As to `COC(=O)CCC(=O)N1CCCC(CO)(Cc2ccccc2)C1` (configuration not stated), the AC50 under setting [1] is 11.2 µM [rising, partial curve, poor fit].

Regarding `CCCCCCC(=O)OCC(=O)c1ccc2c(c1)NC(=O)CO2`, the AC50 under setting [1] was 2.82 µM [rising, full curve, poor fit].

Regarding `COc1ccc(CN2CSC(=S)N(Cc3ccc(OC)cc3)C2)cc1`, the AC50 under setting [2] is 25.1 µM [falling, single point].

With `COc1ccccc1-c1n[nH]c(=S)o1`, the AC50 under setting [1] is 0.517 µM [rising, partial curve, poor fit].

For `O=C(CN1CCCc2ccccc21)N/N=C/c1ccccc1O`, under setting [2], the AC50 is 7.31 µM [falling, partial curve].

As to `O=C(Nc1ccccc1C(=O)O)c1cc(S(=O)(=O)NCc2ccccc2)ccc1Cl`, the AC50 under setting [1] is 0.398 µM [falling, full curve].

For the compound `Cc1cc([N+](=O)[O-])cnc1NC(C)c1ccccc1` (configuration not stated), under setting [1], the AC50 is 35.5 µM [falling, partial curve, poor fit].

Regarding `COC(=O)C1=C(C)N(c2ccc(OC)cc2)C(=O)/C1=C\c1cccs1`, the AC50 under setting [1] is 18.4 µM [rising, partial curve, poor fit].

Take `CCS(=O)(=O)n1nc(-c2ccc(Cl)cc2)nc1N`: the AC50 under setting [1] is 1.46 µM [rising, full curve].

As for `CSc1cccc(NS(=O)(=O)c2ccc3c(c2)oc(=O)n3C)c1`, under setting [1], the AC50 is 3.66 µM [rising, single point].

`O=C(O)c1cc(-c2ccc(-c3ccc(F)cc3)o2)nc2ccccc12`: the AC50 under setting [1] was 11.2 µM [falling, partial curve, poor fit].

Consider `Nc1nc(NC(=O)c2cccs2)nn1-c1ccccc1`, for which the AC50 under setting [1] was 2 µM [falling, full curve].

In the case of `COc1cccc(NC(=O)CSc2c3c(nc4ccccc24)CCCC3)c1`, the AC50 under setting [1] was 20.6 µM [falling, partial curve].

Regarding `CCCn1nc(C(=O)Nc2nc3ccccc3[nH]2)c2ccccc2c1=O`, the AC50 under setting [1] was 20.6 µM [falling, partial curve].

As for `Cc1cc(-c2ccccc2)c2c(=O)n(-c3ccccc3)[nH]c2n1`, under setting [1], the AC50 is 3.16 µM [falling, partial curve, poor fit].

Turning to `CCOC(=O)SC1=N/C(=C\c2ccc(N(C)C)cc2)C(=O)S1`, under setting [1], the AC50 was 5.17 µM [rising, full curve].

On to `CCCOc1ccc(C(=O)NC(=S)Nc2nc3ccc(C)cc3s2)cc1`, for which the AC50 under setting [1] is 0.794 µM [falling, full curve, poor fit].

With `Cc1ccc(S/C=C\C(=O)c2ccccc2)cc1`, the AC50 is 18.4 µM [falling, single point] under setting [1] and 18.4 µM [falling, partial curve, poor fit] under setting [2].

In the case of `CC(=O)Nc1ccc(-c2csc(Nc3ncccn3)n2)cc1`, the AC50 under setting [1] is 1 µM [rising, partial curve, poor fit].

Turning to `NC(=S)N/N=C/c1c(O)c(Br)cc2oc3c(c12)CCCC3`, under setting [1], the AC50 is 0.501 µM [falling, partial curve, poor fit].

In the case of `O=C(/C=C/c1ccc(S(=O)(=O)N2CCOCC2)cc1)Nc1cc(F)ccc1F`, the AC50 under setting [1] is 5.17 µM [falling, full curve].

As for `COc1cccc(OC)c1OCCCSc1nc(C)cc(=O)[nH]1`, under setting [1], the AC50 was 18.4 µM [falling, single point].

For `O=C(Cn1ccn(-c2ccc(F)c(Cl)c2)c(=O)c1=O)NCCc1ccccc1`, the AC50 under setting [1] is 1.64 µM [falling, full curve].

For `COc1ccsc1C(=O)NCCN1CCOCC1`, under setting [1], the AC50 was 0.708 µM [falling, full curve, poor fit].

Consider `CC(C)c1ccccc1NC(=O)COC(=O)c1cc([N+](=O)[O-])ccc1N1CCOCC1`, for which the AC50 under setting [1] is 5.17 µM [rising, partial curve, poor fit].

As to `COc1ccc(NS(=O)(=O)c2c(C)cc(C)cc2C)cc1`, the AC50 under setting [1] was 3.66 µM [falling, full curve, poor fit].

Turning to `CSc1nc(SCCO)c2sc3nc(-c4ccco4)c4c(c3c2n1)CC(C)(C)OC4`, the AC50 under setting [1] was 35.5 µM [falling, partial curve, poor fit].

For `CCOc1ccccc1/C=N/Nc1nc2c(N)ncnc2n1[C@H]1O[C@@H](CO)[C@H](O)[C@@H]1O`, the AC50 under setting [1] was 5.01 µM [rising, full curve] and the AC50 under setting [2] is 8.91 µM [falling, partial curve].

For `Cc1ccc(C)c(OCC(=O)Nc2ccc(C(=O)O)cc2NC(=O)COc2cc(C)ccc2C)c1`, under setting [1], the AC50 was 11.2 µM [falling, partial curve].

Regarding `COc1ccc(S(=O)(=O)N(C)CC(=O)N2CCCCC2)cc1Cl`, the AC50 under setting [1] is 23.1 µM [rising, partial curve, poor fit].

On to `CC(C)(C)NC(=S)NC(=O)C12CCC3CC(CC(C3)C1)C2`, for which, under setting [1], the AC50 is 28.2 µM [rising, single point].

Regarding `O=C1OC(OC(=O)c2ccccc2Br)C(N2CCOCC2)=C1Cl` (configuration not stated), the AC50 under setting [1] is 20.6 µM [falling, single point].

For the compound `COc1ccccc1-c1nn(Cc2ccccc2)cc1/C=C/C(=O)O`, under setting [1], the AC50 was 0.0891 µM [rising, full curve, poor fit].

Consider `CS(=O)(=O)N(CC(=O)NCCC1=CCCCC1)C1CCCCC1`, for which the AC50 under setting [1] was 0.0651 µM [rising, full curve, poor fit].

For `COc1cc(-c2nc(-c3ccc(NC(=O)c4ccc5c(c4)OCO5)cc3)no2)cc(OC)c1OC`, the AC50 under setting [1] was 7.31 µM [falling, partial curve, poor fit].

In general, AC50 refers to the midpoint of the concentration-response curve, whichever way the signal moves.
